{
  "source": "the supplement of paper PMC8728848",
  "binders": {"B1": {"name": "Sp8391B-bot-388-20-388 (Bacteroides ovatus) (protein)", "chain": "GCQNNDENEQHYDNKLFISASNFTKEILFKAGDTNVETGLSVAIAKPEEHDIKVTMSPAPELLSTYKLAYYDETAVLLSEEHYSMPETSTTIKSGSIVSPELPIEFINTGELDIKTTYVLPVTIKSVEGIGVLQSAKTYYYVFRGASLINVVCNISRNRAYPDFKNDSKFNNLTENTMEILFKANSFPNTLNTLMGIESNYLLRIGDATIPNNQLQVATSVNNCTSADLQLESGKWYHVAVAFNKGNVKVYINGVEKLSGSTGKSSVSLGAKHTNEEDGSRCFWVGYSYKDDRYFDGVVSEVRIWNRALTAEEIQATNHFYTIEPESEGLIAYWKFDEGSGTVAKDYSVSGYDLTIEKEPKWESVSLPQ"}},
  "assay_in_all_cases": "glycan array binding signal (z-score within array); higher = stronger binding",
  "details_in_all_cases": "glycan notation: IUPAC condensed, linker removed",
  "key": {"[1]": {"target": "Gal(b1-4)GlcNAc(b1-3)Gal(b1-4)GlcNAc(b1-2)[Gal(b1-4)GlcNAc(b1-3)Gal(b1-4)GlcNAc(b1-6)]Man(a1-6)[Gal(b1-4)GlcNAc(b1-3)Gal(b1-4)GlcNAc(b1-2)Man(a1-3)]Man(b1-4)GlcNAc(b1-4)GlcNAc", "method_in_brief": "(§1)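 From the Consortium for Functional Glycomics database, 3228 arrays were curated, keeping only those whose protein sequence was available. Binding is given as a within-array Z-score averaged across arrays sharing a protein sequence and across linkers. Negative Z-scores can be read as non-binding.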"}, "[2]": {"target": "Gal(b1-4)GlcNAc(b1-3)Gal(b1-4)GlcNAc(b1-2)[Gal(b1-4)GlcNAc(b1-3)Gal(b1-4)GlcNAc(b1-6)]Man(a1-6)[Gal(b1-4)GlcNAc(b1-3)Gal(b1-4)GlcNAc(b1-2)Man(a1-3)]Man(b1-4)GlcNAc(b1-4)[Fuc(a1-6)]GlcNAc", "method_in_brief": "as §1"}, "[3]": {"target": "Gal(b1-4)GlcNAc(b1-3)Gal(b1-4)GlcNAc(b1-3)Gal(b1-4)GlcNAc", "method_in_brief": "as §1"}, "[4]": {"target": "Gal(b1-4)GlcNAc(b1-3)Gal(b1-4)GlcNAc(b1-3)Gal(b1-4)GlcNAc(b1-2)Man(a1-3)[Gal(b1-4)GlcNAc(b1-3)Gal(b1-4)GlcNAc(b1-3)Gal(b1-4)GlcNAc(b1-2)Man(a1-6)]Man(b1-4)GlcNAc(b1-4)GlcNAc", "method_in_brief": "as §1"}, "[5]": {"target": "Gal(b1-4)GlcNAc(b1-3)Gal(b1-4)GlcNAc(b1-3)Gal(b1-4)GlcNAc(b1-2)Man(a1-3)[Gal(b1-4)GlcNAc(b1-3)Gal(b1-4)GlcNAc(b1-3)Gal(b1-4)GlcNAc(b1-2)Man(a1-6)]Man(b1-4)GlcNAc(b1-4)[Fuc(a1-6)]GlcNAc", "method_in_brief": "as §1"}, "[6]": {"target": "Gal(b1-4)GlcNAc(b1-3)Gal(b1-4)GlcNAc(b1-3)Gal(b1-4)GlcNAc(b1-2)[Gal(b1-4)GlcNAc(b1-3)Gal(b1-4)GlcNAc(b1-3)Gal(b1-4)GlcNAc(b1-6)]Man(a1-6)[Gal(b1-4)GlcNAc(b1-3)Gal(b1-4)GlcNAc(b1-3)Gal(b1-4)GlcNAc(b1-2)Man(a1-3)]Man(b1-4)GlcNAc(b1-4)[Fuc(a1-6)]GlcNAc", "method_in_brief": "as §1"}, "[7]": {"target": "Gal(b1-4)GlcNAc(b1-3)Gal(b1-4)GlcNAc(b1-3)Gal(b1-4)GlcNAc(b1-3)Gal(b1-4)GlcNAc(b1-2)Man(a1-3)[Gal(b1-4)GlcNAc(b1-3)Gal(b1-4)GlcNAc(b1-3)Gal(b1-4)GlcNAc(b1-3)Gal(b1-4)GlcNAc(b1-2)Man(a1-6)]Man(b1-4)GlcNAc(b1-4)GlcNAc", "method_in_brief": "as §1"}, "[8]": {"target": "Gal(b1-4)GlcNAc(b1-3)Gal(b1-4)GlcNAc(b1-3)Gal(b1-4)GlcNAc(b1-3)Gal(b1-4)GlcNAc(b1-2)Man(a1-3)[Gal(b1-4)GlcNAc(b1-3)Gal(b1-4)GlcNAc(b1-3)Gal(b1-4)GlcNAc(b1-3)Gal(b1-4)GlcNAc(b1-2)Man(a1-6)]Man(b1-4)GlcNAc(b1-4)[Fuc(a1-6)]GlcNAc", "method_in_brief": "as §1"}, "[9]": {"target": "Gal(b1-4)GlcNAc(b1-3)Gal(b1-4)GlcNAc(b1-3)Gal(b1-4)GlcNAc(b1-3)Gal(b1-4)GlcNAc(b1-2)[Gal(b1-4)GlcNAc(b1-3)Gal(b1-4)GlcNAc(b1-3)Gal(b1-4)GlcNAc(b1-3)Gal(b1-4)GlcNAc(b1-6)]Man(a1-6)[Gal(b1-4)GlcNAc(b1-3)Gal(b1-4)GlcNAc(b1-3)Gal(b1-4)GlcNAc(b1-3)Gal(b1-4)GlcNAc(b1-2)Man(a1-3)]Man(b1-4)GlcNAc(b1-4)[Fuc(a1-6)]GlcNAc", "method_in_brief": "as §1"}, "[10]": {"target": "Gal(b1-4)GlcNAc(b1-3)Gal(b1-4)GlcNAc(b1-3)Gal(b1-4)GlcNAc(b1-3)Gal(b1-4)GlcNAc(b1-3)Gal(b1-4)GlcNAc(b1-2)Man(a1-3)[Gal(b1-4)GlcNAc(b1-3)Gal(b1-4)GlcNAc(b1-3)Gal(b1-4)GlcNAc(b1-3)Gal(b1-4)GlcNAc(b1-3)Gal(b1-4)GlcNAc(b1-2)Man(a1-6)]Man(b1-4)GlcNAc(b1-4)GlcNAc", "method_in_brief": "as §1"}, "[11]": {"target": "Gal(b1-4)GlcNAc(b1-3)Gal(b1-4)GlcNAc(b1-3)Gal(b1-4)GlcNAc(b1-3)Gal(b1-4)GlcNAc(b1-3)Gal(b1-4)GlcNAc(b1-2)Man(a1-3)[Gal(b1-4)GlcNAc(b1-3)Gal(b1-4)GlcNAc(b1-3)Gal(b1-4)GlcNAc(b1-3)Gal(b1-4)GlcNAc(b1-3)Gal(b1-4)GlcNAc(b1-2)Man(a1-6)]Man(b1-4)GlcNAc(b1-4)[Fuc(a1-6)]GlcNAc", "method_in_brief": "as §1"}, "[12]": {"target": "Gal(b1-4)GlcNAc(b1-3)Gal(b1-4)GlcNAc(b1-3)Gal(b1-4)GlcNAc(b1-3)Gal(b1-4)GlcNAc(b1-3)Gal(b1-4)GlcNAc(b1-2)[Gal(b1-4)GlcNAc(b1-3)Gal(b1-4)GlcNAc(b1-3)Gal(b1-4)GlcNAc(b1-3)Gal(b1-4)GlcNAc(b1-3)Gal(b1-4)GlcNAc(b1-6)]Man(a1-6)[Gal(b1-4)GlcNAc(b1-3)Gal(b1-4)GlcNAc(b1-3)Gal(b1-4)GlcNAc(b1-3)Gal(b1-4)GlcNAc(b1-3)Gal(b1-4)GlcNAc(b1-2)Man(a1-3)]Man(b1-4)GlcNAc(b1-4)[Fuc(a1-6)]GlcNAc", "method_in_brief": "as §1"}, "[13]": {"target": "Gal(b1-4)GlcNAc(b1-3)Gal(b1-4)GlcNAc(b1-3)Gal(b1-4)GlcNAc(b1-3)Gal(b1-4)GlcNAc(b1-3)Gal(b1-4)GlcNAc(b1-3)Gal(b1-4)GlcNAc(b1-2)Man(a1-3)[Gal(b1-4)GlcNAc(b1-3)Gal(b1-4)GlcNAc(b1-3)Gal(b1-4)GlcNAc(b1-3)Gal(b1-4)GlcNAc(b1-3)Gal(b1-4)GlcNAc(b1-3)Gal(b1-4)GlcNAc(b1-2)Man(a1-6)]Man(b1-4)GlcNAc(b1-4)GlcNAc", "method_in_brief": "as §1"}, "[14]": {"target": "Gal(b1-4)GlcNAc(b1-3)Gal(b1-4)GlcNAc(b1-3)GalNAc", "method_in_brief": "as §1"}, "[15]": {"target": "Gal(b1-4)GlcNAc(b1-3)Gal(b1-4)GlcNAc(b1-3)[Gal(b1-4)GlcNAc(b1-3)Gal(b1-4)GlcNAc(b1-6)]GalNAc", "method_in_brief": "as §1"}, "[16]": {"target": "Gal(b1-4)GlcNAc(b1-3)Gal(b1-4)GlcNAc(b1-6)[Gal(b1-3)]GalNAc", "method_in_brief": "as §1"}, "[17]": {"target": "Gal(b1-4)GlcNAc(b1-3)Gal(b1-4)[Fuc(a1-3)]GlcNAc(b1-3)Gal(b1-4)[Fuc(a1-3)]GlcNAc", "method_in_brief": "as §1"}, "[18]": {"target": "Gal(b1-4)GlcNAc(b1-3)GalNAc", "method_in_brief": "as §1"}, "[19]": {"target": "Gal(b1-4)GlcNAc(b1-3)[Fuc(a1-3)GlcNAc(b1-6)]Gal(b1-4)Glc", "method_in_brief": "as §1"}, "[20]": {"target": "Gal(b1-4)GlcNAc(b1-3)[Gal(b1-4)GlcNAc(b1-6)]Gal(b1-4)GlcNAc", "method_in_brief": "as §1"}, "[21]": {"target": "Gal(b1-4)GlcNAc(b1-3)[GlcNAc(b1-6)]Gal(b1-4)GlcNAc", "method_in_brief": "as §1"}, "[22]": {"target": "Gal(b1-4)GlcNAc(b1-6)Gal(b1-4)GlcNAc", "method_in_brief": "as §1"}},
  "note": "The list shows a part of the results.",
  "data": [
    {"binder": "B1", "values": [
      {"measurement": "glycan array binding signal (z-score)", "setting": "[1]", "result": -0.936},
      {"measurement": "glycan array binding signal (z-score)", "setting": "[2]", "result": 0.479},
      {"measurement": "glycan array binding signal (z-score)", "setting": "[3]", "result": -0.686},
      {"measurement": "glycan array binding signal (z-score)", "setting": "[4]", "result": 2.45},
      {"measurement": "glycan array binding signal (z-score)", "setting": "[5]", "result": -0.039},
      {"measurement": "glycan array binding signal (z-score)", "setting": "[6]", "result": 0.655},
      {"measurement": "glycan array binding signal (z-score)", "setting": "[7]", "result": 2.49},
      {"measurement": "glycan array binding signal (z-score)", "setting": "[8]", "result": 0.085},
      {"measurement": "glycan array binding signal (z-score)", "setting": "[9]", "result": -0.629},
      {"measurement": "glycan array binding signal (z-score)", "setting": "[10]", "result": 0.85},
      {"measurement": "glycan array binding signal (z-score)", "setting": "[11]", "result": 0.281},
      {"measurement": "glycan array binding signal (z-score)", "setting": "[12]", "result": -0.112},
      {"measurement": "glycan array binding signal (z-score)", "setting": "[13]", "result": 1.31},
      {"measurement": "glycan array binding signal (z-score)", "setting": "[14]", "result": -0.212},
      {"measurement": "glycan array binding signal (z-score)", "setting": "[15]", "result": -0.269},
      {"measurement": "glycan array binding signal (z-score)", "setting": "[16]", "result": 0.674},
      {"measurement": "glycan array binding signal (z-score)", "setting": "[17]", "result": -0.284},
      {"measurement": "glycan array binding signal (z-score)", "setting": "[18]", "result": -0.431},
      {"measurement": "glycan array binding signal (z-score)", "setting": "[19]", "result": 0.415},
      {"measurement": "glycan array binding signal (z-score)", "setting": "[20]", "result": 0.572},
      {"measurement": "glycan array binding signal (z-score)", "setting": "[21]", "result": 0.193},
      {"measurement": "glycan array binding signal (z-score)", "setting": "[22]", "result": 0.486}
    ]}
  ]
}
